# In all, about 580,000 compounds went through this assay and about 6,100 (1.1%) were called active. Inconclusive means that the source gave no clear call. Such entries were picked first, then a sample of the others. Calls come from the whole dose curve; as a rule, active = well fitted inhibition curve with a large enough effect; inconclusive = small, poorly fitted or top-dose-only effect, or another doubt; inactive = no such curve, though single readings can be large or run the other way. Potencies beside an inconclusive call are fits to weak or partial responses and may not hold up.
# By UniProt entry, the sequences of proteins in these tests, tags left out. Where a name states a change or a piece, a line headed by the entry shows the natural chain unless it says otherwise.
# UniProt P18054: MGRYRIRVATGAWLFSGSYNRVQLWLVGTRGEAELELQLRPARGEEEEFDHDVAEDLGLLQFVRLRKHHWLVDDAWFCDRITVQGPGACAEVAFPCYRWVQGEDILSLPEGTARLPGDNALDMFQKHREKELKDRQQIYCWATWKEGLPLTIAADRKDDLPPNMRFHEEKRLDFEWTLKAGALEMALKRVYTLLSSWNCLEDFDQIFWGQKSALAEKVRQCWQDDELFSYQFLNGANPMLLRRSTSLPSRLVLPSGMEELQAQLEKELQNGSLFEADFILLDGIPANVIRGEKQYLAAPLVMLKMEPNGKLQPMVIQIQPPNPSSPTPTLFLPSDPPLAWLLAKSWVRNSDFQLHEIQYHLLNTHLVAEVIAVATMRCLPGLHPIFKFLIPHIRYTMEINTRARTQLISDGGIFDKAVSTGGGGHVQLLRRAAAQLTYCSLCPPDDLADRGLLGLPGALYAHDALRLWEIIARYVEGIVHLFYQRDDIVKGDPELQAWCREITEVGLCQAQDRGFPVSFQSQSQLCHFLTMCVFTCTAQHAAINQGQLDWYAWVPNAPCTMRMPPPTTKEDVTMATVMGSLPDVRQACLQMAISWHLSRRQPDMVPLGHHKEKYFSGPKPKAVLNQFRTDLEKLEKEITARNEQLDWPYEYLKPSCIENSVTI
# Biological target: Polyunsaturated fatty acid lipoxygenase ALOX12 (Homo sapiens) (UniProt P18054)
# Test: Primary qHTS assay for inhibitors of human arachidonate 12S-lipoxygenase (ALOX12): Round 2
# Settings: purified 12hLO, xylenol orange hydroperoxide absorbance; series mostly up to 108 µM
# Procedure, shortened: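 Purified human 12hLO (150 nM final) in 25 mM Hepes, 0.01% Triton X-100, pH 7.0 was preincubated 15 min at room temperature with compound. Then 40 uM arachidonic acid was added, 30 min. Hydroperoxide was read by Fe-XO absorbance ratio 573/405 nm.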
# Potency is the fitted concentration of half-maximal effect.
row,SMILES,Potency
1,COc1ccc(/C=N/NC(=O)c2cccc([N+](=O)[O-])c2)cc1OS(=O)(=O)c1ccc(C)cc1,inactive
2,COc1cc(/C=C/C(=O)C2C(=O)C=C(C)OC2=O)cc(OC)c1O (stereo unspecified),"inconclusive: 50.1 µM [inhibitor, partial curve, poor fit]"
3,COc1ccc2c(c1)-c1c(ssc1=S)C(C)(C)N2,"inconclusive: 25.1 µM [inhibitor, full curve]"
4,CCc1nc2ccc(C(=O)Nc3ncccc3O)cc2nc1CC,inactive
5,NC(=O)CC(NC(=O)c1ccccc1)c1ccc(N2CCN(c3ccc(F)cc3)CC2)c([N+](=O)[O-])c1 (stereo unspecified),"inconclusive: 39.8 µM [inhibitor, partial curve, poor fit]"
6,COc1ccc(S(=O)(=O)Nc2c(C(=O)O)[nH]c3ccccc23)cc1,"inconclusive: 12.6 µM [inhibitor, full curve, poor fit]"
7,COc1ccccc1NC(=O)CN1C(=O)C(c2ccc(F)cc2)=NC12CCCCC2,inactive
8,CC(=O)N1CCCCC1c1nnc2n1CCNC2 (stereo unspecified),"inconclusive: 5.19 µM [inhibitor, single point]"
9,COc1cc(OC)cc(C(=O)NCc2nc(-c3ccccc3)no2)c1,"inconclusive: 56.2 µM [inhibitor, partial curve, poor fit]"
10,O=C(Cc1c[nH]c2ccccc12)NCCc1c[nH]c2ccc(F)cc12,"inconclusive: 28.2 µM [inhibitor, single point]"
11,CCc1noc2ncnc(N3CCCC(C(=O)NCc4cccc(OC)c4)C3)c12 (stereo unspecified),inactive
12,Cc1ccc(C(=O)N/N=C\c2ccc[nH]2)cc1[N+](=O)[O-],inactive
13,CC(C)Nc1nc(Cl)nc(N(C#N)CN2C(=O)c3ccccc3C2=O)n1,"inconclusive: 35.5 µM [inhibitor, partial curve, poor fit]"
14,CS(=O)(=O)Nc1ccc(C(=O)Nc2ccccc2Cl)cc1,"inconclusive: 89.1 µM [inhibitor, single point]"
15,CC1(C(=O)Nc2ccc3c(c2)OCO3)Cc2c(-c3cccc(C(N)=O)c3)ccnc2O1 (stereo unspecified),inactive
16,CCOC(=O)C1=C(c2ccccc2)NC(=O)NC1c1ccc(N(C)C)cc1 (stereo unspecified),"inconclusive: 12.6 µM [inhibitor, partial curve, poor fit]"
17,COc1ccc([C@@H]2CC=C(C(=O)O)[C@H](c3ccc(Br)cc3)N2S(=O)(=O)c2ccc(C)cc2)cc1OC,"inconclusive: 28.2 µM [inhibitor, single point]"
18,CSc1ccc(S(=O)(=O)Nc2ccc(S(=O)(=O)Nc3ccc(C)cc3)cc2)cc1,"inconclusive: 35.5 µM [inhibitor, partial curve, poor fit]"
19,CC(C)(C)C(=O)N1CCC2(CC1)NCCc1c2[nH]c2ccccc12,inactive
20,S=c1[nH]nc(Cc2cccc3ccccc23)o1,"inconclusive: 70.8 µM [inhibitor, single point]"
21,CCC(=O)N1CCc2c(sc3ncnc(N4CCN(C)CC4)c23)C1,"inconclusive: 2.82 µM [inhibitor, full curve, poor fit]"

row,SMILES,Potency
1,CC(C)(C)c1cccc(CN2CCC3(CCNCC3)C2)c1O,inactive
2,Cc1cccc(NC(=S)NCCSc2ccc(Cl)cc2)c1,"inconclusive: 44.7 µM [inhibitor, partial curve, poor fit]"
3,Cc1ccc(S(=O)(=O)N2CCOCC2)cc1NC(=O)CSc1nc2ccc(Cl)cc2[nH]1,inactive
4,COCCN(C(=O)COC(=O)CNC(=O)c1ccc(C)cc1)c1c(N)n(Cc2ccccc2)c(=O)[nH]c1=O,"inconclusive: 141 µM [inhibitor, single point]"
5,O=C(c1ccco1)N1CCN(C(c2ccccc2Cl)c2nnnn2CC2CCCO2)CC1 (stereo unspecified),"inconclusive: 17.8 µM [inhibitor, partial curve, poor fit]"
6,COC1=C(Nc2ccccc2)C(=O)c2ccccc2C1=O,inactive
7,CCOC(=O)C1(C)/C(=N/Nc2ccc(Cl)cc2)C(=O)C(=O)N1c1ccccc1 (stereo unspecified),"inconclusive: 39.8 µM [inhibitor, partial curve, poor fit]"
8,CN(Cc1ccccc1F)c1ccc(S(N)(=O)=O)cn1,"inconclusive: 79.4 µM [inhibitor, partial curve, poor fit]"
9,O=C(NCCc1ccc(Cl)cc1)c1nc(-c2cccnc2)c2cnccn12,"inconclusive: 15.8 µM [inhibitor, full curve, poor fit]"
10,CC(C)C[C@H]1CNC(=O)C(=O)N1CC1CCN(CCC(C)c2ccccc2)CC1 (stereo partly specified),"inconclusive: 44.7 µM [inhibitor, partial curve, poor fit]"
11,COc1ccc(/C=C2/S/C(=N/N=C3\CC4CCC3(C)C4(C)C)NC2=O)cc1 (stereo unspecified),inactive
12,Cc1cc(NS(=O)(=O)c2ccc(NC(=O)COc3ccccc3Br)cc2)no1,inactive
13,Cn1c(=O)c(=O)n(C)c2cc(N3CCCCC3)c(NS(=O)(=O)c3ccc([N+](=O)[O-])cc3)cc21,"inconclusive: 44.7 µM [inhibitor, partial curve, poor fit]"
14,N#Cc1ccc(OCC(=O)NNC(=O)C2CC(=O)Nc3cc(F)ccc32)cc1 (stereo unspecified),inactive
15,COC(=O)C1=C(C)NC(=O)NC1c1cccc(Oc2ccc(Cl)cc2)c1 (stereo unspecified),"inconclusive: 56.2 µM [inhibitor, partial curve, poor fit]"
16,O=C(c1ccc(F)cc1)N1CCC2(CC1)NCc1ccccc1NC2=O,"inconclusive: 70.8 µM [inhibitor, partial curve, poor fit]"
17,Cc1nnc(SCC(=O)N2N=C(c3ccc(Cl)cc3)CC2c2ccco2)[nH]c1=O (stereo unspecified),"inconclusive: 44.7 µM [inhibitor, partial curve, poor fit]"
18,CCN(CC)CCNC(=O)c1ccc(CN2CC(=O)N3CCCC3C2=O)cc1 (stereo unspecified),inactive
19,CCN(C(=O)COC(=O)c1c2c(nc3ccccc13)CCC2)c1c(N)n(Cc2ccccc2)c(=O)[nH]c1=O,"inconclusive: 112 µM [inhibitor, single point]"
20,COc1ccc(C2C(C(=O)c3ccccc3)=C(C)Nc3nc4ccccc4n32)c(OC)c1 (stereo unspecified),inactive

# A second format for some results above:
row | SMILES | Potency
11 | CCc1noc2ncnc(N3CCCC(C(=O)NCc4cccc(OC)c4)C3)c12 (stereo unspecified) | inactive
12 | Cc1cc(NS(=O)(=O)c2ccc(NC(=O)COc3ccccc3Br)cc2)no1 | inactive
